Data taken from patent US9408392B2, “Compounds” (SYNGENTA PARTICIPATIONS AG, priority 2012, dated 2016).
Some entries share one result that the patent states for a list of compounds. At least one compound was matched to its structure with a doubt left.

Legend:
[1] = test system: Meloidogyne spp. (Root-knot nematode); experiment: Meloidogyne spp. (Root-knot nematode) contact activity, preventive, pouch test (Biological Screen Nem 1); assay type: in vivo; details: cucumber cv. Toshka seed, test solution at 200 ppm, 3000 eggs, twelve days, number of galls per root system
Method: Meloidogyne spp. (Root-knot nematode) contact activity, preventive. Pouch test. Filter papers (9 cm×4.5 cm) with a small pocket were placed into plastic pouches (12 cm×6 cm). One cucumber cv. Toshka seed was placed in the centre of the filter paper pocket of all the pouches needed for a test. The cucumber seeds in the pouches were treated with test solutions at 200 ppm by pipetting the solution directly over the cucumber seed in the filter paper pocket in the pouch. Prior to application, the compound solution was prepared at twice the concentration required and the egg suspension is prepared with FORL nutrient solution with 3000 eggs/0.5 ml. After applying all the treatments, 3000 eggs (in 0.5 ml of FORL nutrient solution) were pipetted into the pouches. The pouches were incubated in a moist chamber for twelve days and watered regularly to maintain good filter paper moisture essential for the growing cucumber root system. After this period, the filter paper containing the germinated cucumber seedling was removed from the plastic pouch to assess the number of galls caused by Meloidogyne spp. per root system. Biological Screen Nem 1. Meloidogyne spp. (Root-knot nematode) contact activity, preventive. Pouch test. Values are given in % galling.

M. incognita = experiment: Meloidogyne spp. (Root-knot nematode) contact activity, preventive, drench test (Biological Screen Nem 2); assay type: in vivo; details: cucumber cv. Toshka in pots, 5 ml WP10 suspension at 20 ppm, 3000 eggs of M. incognita, fourteen days, Zeck's gall index
Method: Meloidogyne spp. (Root-knot nematode) contact activity, preventive, drench test. Cucumber cv. Toshka seeds were shown directly into pots filled with a sandy substrate. Six days later pots were each treated with 5 ml of a WP10 suspension of the test compound at 20 ppm. Hereafter pots were inoculated with 3000 eggs of M. incognita. The trial was harvested fourteen days after trial application and inoculation. Root galling was assessed according to Zeck's gall index (Zeck, 1971). Biological Screen Nem 2. Meloidogyne spp. (Root-knot nematode) contact activity, preventive, drench test. Values are given in % galling.

SMILES | reduction of galling compared to the untreated control [1] | reduction of galling compared to the untreated control (M. incognita)
O=C(N[C@@H]1C[C@@H]1c1ccc(F)cc1Cl)c1ccccc1C(F)(F)F (racemic) [Compound 67-065] | greater than 80% | greater than 80%
O=C(N[C@@H]1C[C@@H]1c1c(F)cc(F)cc1F)c1c(F)cccc1F (racemic) [Compound 67-067] | greater than 80% | greater than 80%
O=C(N[C@@H]1C[C@@H]1c1c(F)cc(F)cc1F)c1ccccc1C(F)(F)F (racemic) [Compound 67-068] | greater than 80% | greater than 80%
Cc1ncccc1C(=O)N[C@@H]1C[C@@H]1c1ccc(OC(F)F)cc1 (racemic) [Compound 67-071] | greater than 80% | greater than 80%
O=C(N[C@@H]1C[C@@H]1c1ccc(OC(F)F)cc1)c1ncccc1C(F)(F)F (racemic) [Compound 67-073] | greater than 80% | greater than 80%
O=C(N[C@@H]1C[C@@H]1c1ccc(OC(F)F)cc1)c1cccnc1C(F)(F)F (racemic) [Compound 67-074] | greater than 80% | greater than 80%
O=C(N[C@@H]1C[C@@H]1c1ccc(OC(F)F)cc1)c1ncccc1F (racemic) [Compound 67-075] | greater than 80% | greater than 80%
O=C(N[C@@H]1C[C@@H]1c1ccc(OC(F)F)cc1)c1nccnc1Cl (racemic) [Compound 67-077] | greater than 80% | greater than 80%
O=C(N[C@@H]1C[C@@H]1c1ccc(F)cc1)c1ncccc1C(F)(F)F (racemic) [Compound 67-085] | greater than 80% | greater than 80%
O=C(N[C@@H]1C[C@@H]1c1ccc(F)cc1)c1ncccc1F (racemic) [Compound 67-086] | greater than 80% | greater than 80%
O=C(N[C@@H]1C[C@@H]1c1ccc(F)cc1)c1nccnc1Cl (racemic) [Compound 67-087] | greater than 80% | greater than 80%
O=C(N[C@@H]1CC1c1ccc(Cl)cc1Cl)c1c(F)cccc1F (stereo partly drawn) [Compound 67-016] | greater than 80% | greater than 80%
